Our source for the binding values is paper PMC9301129.

Protein sequences, listed by entry. Tags and fused reporters are not part of them.
UniProt P22366: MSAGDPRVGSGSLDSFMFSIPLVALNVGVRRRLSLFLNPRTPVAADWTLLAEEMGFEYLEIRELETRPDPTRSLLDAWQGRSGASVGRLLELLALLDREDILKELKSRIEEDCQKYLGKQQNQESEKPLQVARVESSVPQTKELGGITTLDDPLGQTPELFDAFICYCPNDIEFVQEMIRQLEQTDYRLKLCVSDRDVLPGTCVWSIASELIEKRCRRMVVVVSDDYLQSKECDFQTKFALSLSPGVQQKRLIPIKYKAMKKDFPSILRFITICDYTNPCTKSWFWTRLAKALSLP

These are yes or no findings as the source states them, for the method shown. Binding seen in cells or lysates may run through a third protein. Some binding calls cover weakened binding; strength is not graded here. Sequences can lack the tags named with a protein.

The target of assay [1] is T1, TLR9-myc (in UNC93B1 KO iBMDMs) (UniProt Q9EQU3).
T1 sequence: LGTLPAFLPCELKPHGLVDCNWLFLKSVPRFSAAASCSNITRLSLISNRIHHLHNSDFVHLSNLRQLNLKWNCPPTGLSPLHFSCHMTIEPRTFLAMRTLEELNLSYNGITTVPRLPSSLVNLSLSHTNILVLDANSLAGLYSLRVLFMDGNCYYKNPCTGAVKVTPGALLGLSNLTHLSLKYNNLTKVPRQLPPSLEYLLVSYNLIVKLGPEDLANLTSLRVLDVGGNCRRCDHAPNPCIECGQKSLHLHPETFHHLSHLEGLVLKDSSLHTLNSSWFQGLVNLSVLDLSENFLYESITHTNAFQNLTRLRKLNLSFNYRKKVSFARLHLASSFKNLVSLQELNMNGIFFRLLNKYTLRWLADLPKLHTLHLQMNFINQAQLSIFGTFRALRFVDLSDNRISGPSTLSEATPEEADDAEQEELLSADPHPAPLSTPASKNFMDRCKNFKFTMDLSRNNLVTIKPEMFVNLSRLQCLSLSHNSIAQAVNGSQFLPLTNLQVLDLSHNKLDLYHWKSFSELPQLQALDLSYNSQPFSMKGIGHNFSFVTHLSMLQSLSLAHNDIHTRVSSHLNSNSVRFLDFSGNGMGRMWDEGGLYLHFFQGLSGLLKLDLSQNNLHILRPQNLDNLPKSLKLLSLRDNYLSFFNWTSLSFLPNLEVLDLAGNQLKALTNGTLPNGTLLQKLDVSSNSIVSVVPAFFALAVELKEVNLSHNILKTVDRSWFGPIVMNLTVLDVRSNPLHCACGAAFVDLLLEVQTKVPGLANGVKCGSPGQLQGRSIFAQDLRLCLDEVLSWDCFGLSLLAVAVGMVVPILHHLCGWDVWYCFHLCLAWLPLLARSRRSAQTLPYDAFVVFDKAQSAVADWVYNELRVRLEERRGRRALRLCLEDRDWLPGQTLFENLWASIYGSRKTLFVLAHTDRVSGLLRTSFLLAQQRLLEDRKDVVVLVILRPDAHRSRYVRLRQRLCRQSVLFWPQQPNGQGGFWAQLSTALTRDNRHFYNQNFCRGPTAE
The assay is described as follows: co-IP; UNC93B1 KO iBMDMs expressing TLR9-myc and UNC93B1-GFP (wild type or mutant), unstimulated; TLR9-myc precipitated from cell lysates; MyD88 detected with anti-MyD88.

The target in assay [2] is T1, TLR9-myc (in UNC93B1 KO iBMDMs). The assay is described as follows: co-IP; UNC93B1 KO iBMDMs expressing TLR9-myc and UNC93B1-GFP (N272Q or N251Q/N272Q), stimulated with 1 μM CpG DNA for 2 h; TLR9-myc precipitated from cell lysates; MyD88 detected with anti-MyD88.

As for MyD88 (from UniProt P22366 1-296), the binding result in assay [1] is listed as “no binding (condition: without CpG DNA stimulation)”; in assay [2], “binds weakly”.
